Data as given in paper PMC11446459.
No constants are given. Whether binding was seen depends on the method and setting. Binding can be weak; no strength is given. Sequences can lack the tags named with a protein.

How the values were obtained:
Experiment in all cases: two-hybrid; Gal4 system (Matchmaker Gold); C1-FDX, ACP1, ACP2 in pGADT7, CI and CV subunits in pGBKT7; yeast AH109; growth on SD/-Trp/-Leu/-His/-Ade/+ x-α-gal for 4 days at 30°C
[1] = molecular target: T1, B9, PD module subunit of complex I, Gal4 DNA-binding domain fusion (Arabidopsis) (UniProt Q945M1)
T1 sequence: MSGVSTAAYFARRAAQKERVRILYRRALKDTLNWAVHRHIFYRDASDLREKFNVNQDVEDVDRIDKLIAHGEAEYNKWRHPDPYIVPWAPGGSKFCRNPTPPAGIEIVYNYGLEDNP

[2] = molecular target: T2, CA1, CA module subunit of complex I, Gal4 DNA-binding domain fusion (Arabidopsis) (UniProt Q9FWR5)
T2 sequence: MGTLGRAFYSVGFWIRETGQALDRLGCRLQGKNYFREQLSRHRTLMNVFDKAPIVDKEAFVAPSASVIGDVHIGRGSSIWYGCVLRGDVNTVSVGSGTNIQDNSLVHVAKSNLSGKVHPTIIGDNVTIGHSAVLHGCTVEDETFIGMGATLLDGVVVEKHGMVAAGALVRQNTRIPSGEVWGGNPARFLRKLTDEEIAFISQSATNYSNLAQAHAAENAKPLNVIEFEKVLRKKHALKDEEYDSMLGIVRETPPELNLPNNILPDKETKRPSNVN

[3] = molecular target: T3, CA3, CA module subunit of complex I, Gal4 DNA-binding domain fusion (Arabidopsis) (UniProt Q94AU7)
T3 sequence: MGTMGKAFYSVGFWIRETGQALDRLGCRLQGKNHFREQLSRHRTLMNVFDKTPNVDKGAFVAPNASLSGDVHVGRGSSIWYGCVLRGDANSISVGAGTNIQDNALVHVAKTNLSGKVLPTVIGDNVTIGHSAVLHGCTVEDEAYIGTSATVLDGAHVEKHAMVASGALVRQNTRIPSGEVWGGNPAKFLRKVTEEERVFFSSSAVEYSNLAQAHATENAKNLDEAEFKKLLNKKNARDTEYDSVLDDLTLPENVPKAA

[4] = molecular target: T4, γ subunit of the F1 module of complex V, Gal4 DNA-binding domain fusion (Arabidopsis) (UniProt Q96250)
T4 sequence: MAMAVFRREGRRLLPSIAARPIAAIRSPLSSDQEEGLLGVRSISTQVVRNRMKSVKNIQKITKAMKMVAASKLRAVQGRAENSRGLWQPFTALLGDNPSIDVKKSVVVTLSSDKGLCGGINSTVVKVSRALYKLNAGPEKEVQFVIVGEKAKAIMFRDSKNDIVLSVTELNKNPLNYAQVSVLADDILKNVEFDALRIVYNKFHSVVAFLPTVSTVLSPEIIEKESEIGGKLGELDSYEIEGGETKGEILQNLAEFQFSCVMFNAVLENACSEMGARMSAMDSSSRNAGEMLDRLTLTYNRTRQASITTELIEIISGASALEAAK

[5] = molecular target: T5, δ subunit of the F1 module of complex V, Gal4 DNA-binding domain fusion (Arabidopsis) (UniProt Q96252)
T5 sequence: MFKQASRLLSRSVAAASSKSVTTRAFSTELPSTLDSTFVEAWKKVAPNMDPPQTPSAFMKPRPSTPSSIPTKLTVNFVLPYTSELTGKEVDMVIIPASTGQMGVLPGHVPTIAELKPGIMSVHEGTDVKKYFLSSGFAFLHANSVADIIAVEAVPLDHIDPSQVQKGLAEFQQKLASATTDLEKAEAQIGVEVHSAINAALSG

- binding [4]: binds
- binding [5]: binds
Substance: C1-FDX (Complex I-ferredoxin), Gal4 activation domain fusion (Arabidopsis)
- binding [1]: binds
- binding [2]: binds
- binding [3]: binds
